Measured values: doi:10.1101/2023.07.20.548338
Results are given in words; binding and its absence hold for the method and conditions named. Binding seen in cells or lysates may run through a third protein. Some binding calls cover weakened binding; strength is not graded here. Sequences can lack the tags named with a protein.

By UniProt entry, the sequences of proteins in these tests, tags left out. Where a name states a change or a piece, a line headed by the entry shows the natural chain unless it says otherwise. Residues count along the entry.
UniProt D3Z7P3, 55-674: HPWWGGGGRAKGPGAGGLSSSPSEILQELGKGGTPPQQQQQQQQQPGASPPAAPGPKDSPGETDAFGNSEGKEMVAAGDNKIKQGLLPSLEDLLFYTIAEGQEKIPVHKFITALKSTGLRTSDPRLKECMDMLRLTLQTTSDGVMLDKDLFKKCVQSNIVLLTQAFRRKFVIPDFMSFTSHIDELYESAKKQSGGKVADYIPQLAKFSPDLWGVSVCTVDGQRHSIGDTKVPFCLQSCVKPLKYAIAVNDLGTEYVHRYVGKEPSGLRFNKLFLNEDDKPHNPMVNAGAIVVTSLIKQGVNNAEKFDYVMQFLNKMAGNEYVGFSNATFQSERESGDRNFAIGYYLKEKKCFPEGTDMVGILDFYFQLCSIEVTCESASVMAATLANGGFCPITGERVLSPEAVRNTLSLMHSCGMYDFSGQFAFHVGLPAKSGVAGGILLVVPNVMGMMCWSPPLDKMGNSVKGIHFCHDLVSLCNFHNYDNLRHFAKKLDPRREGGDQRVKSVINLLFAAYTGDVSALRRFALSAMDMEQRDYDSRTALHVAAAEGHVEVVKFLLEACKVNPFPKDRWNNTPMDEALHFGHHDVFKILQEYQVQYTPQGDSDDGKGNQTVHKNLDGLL
UniProt O94925, 55-669: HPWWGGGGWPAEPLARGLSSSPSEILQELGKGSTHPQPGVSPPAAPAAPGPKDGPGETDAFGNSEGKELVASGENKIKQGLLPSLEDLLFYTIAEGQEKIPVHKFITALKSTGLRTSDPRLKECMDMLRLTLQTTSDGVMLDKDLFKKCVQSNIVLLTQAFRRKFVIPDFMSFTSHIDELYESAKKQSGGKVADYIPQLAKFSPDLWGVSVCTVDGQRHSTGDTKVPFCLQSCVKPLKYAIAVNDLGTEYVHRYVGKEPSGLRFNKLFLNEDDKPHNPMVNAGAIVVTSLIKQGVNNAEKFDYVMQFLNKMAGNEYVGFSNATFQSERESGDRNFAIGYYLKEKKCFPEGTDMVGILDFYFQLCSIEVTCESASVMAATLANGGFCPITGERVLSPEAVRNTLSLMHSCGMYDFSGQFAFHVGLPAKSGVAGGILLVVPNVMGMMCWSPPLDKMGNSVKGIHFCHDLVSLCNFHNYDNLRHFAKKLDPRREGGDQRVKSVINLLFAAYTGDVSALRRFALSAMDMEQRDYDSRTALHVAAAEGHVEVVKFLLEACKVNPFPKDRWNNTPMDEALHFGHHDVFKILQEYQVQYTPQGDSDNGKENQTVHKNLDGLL

Experiments:
[1] = target: glutaminase 1 (GLS1; both KGA and GAC), endogenous in MEFs (mouse (endogenous in MEFs)) (UniProt D3Z7P3); experiment: co-IP
[2] = target: glutaminase 1 (GLS1; both KGA and GAC), endogenous in MEFs (mouse (endogenous in MEFs)) (UniProt D3Z7P3); experiment: proximity ligation
[3] = target: KGA-mCherry, expressed in MEFs (UniProt O94925); experiment: FRET or BRET

| binding [1] | binding [2] | binding [3] | Binder |
| --- | --- | --- | --- |
|  |  | binds | PDZD8-T527A-GFP, expressed in MEFs (protein, UniProt Q8NEN9 1-1154) MGLLLMILASAVLGSFLTLLAQFFLLYRRQPEPPADEAARAGEGFRYIKPVPGLLLREYLYGGGRDEEPSGAAPEGGATPTAAPETPAPPTRETCYFLNATILFLFRELRDTALTRRWVTKKIKVEFEELLQTKTAGRLLEGLSLRDVFLGETVPFIKTIRLVRPVVPSATGEPDGPEGEALPAACPEELAFEAEVEYNGGFHLAIDVDLVFGKSAYLFVKLSRVVGRLRLVFTRVPFTHWFFSFVEDPLIDFEVRSQFEGRPMPQLTSIIVNQLKKIIKRKHTLPNYKIRFKPFFPYQTLQGFEEDEEHIHIQQWALTEGRLKVTLLECSRLLIFGSYDREANVHCTLELSSSVWEEKQRSSIKTVELIKGNLQSVGLTLRLVQSTDGYAGHVIIETVAPNSPAAIADLQRGDRLIAIGGVKITSTLQVLKLIKQAGDRVLVYYERPVGQSNQGAVLQDNFGQLEENFLSSSCQSGYEEEAAGLTVDTESRELDSEFEDLASDVRAQNEFKDEAQSLSHSPKRVPATLSIKPLGAISPVLNRKLAVGSHPLPPKIQSKDGNKPPPLKTSEITDPAQVSKPTQGSAFKPPVPPRPQAKVPLPSADAPNQAEPDVLVEKPEKVVPPPLVDKSAEKQAKNVDAIDDAAAPKQFLAKQEVAKDVTSETSCPTKDSSDDRQTWESSEILYRNKLGKWTRTRASCLFDIEACHRYLNIALWCRDPFKLGGLICLGHVSLKLEDVALGCLATSNTEYLSKLRLEAPSPKAIVTRTALRNLSMQKGFNDKFCYGDITIHFKYLKEGESDHHVVTNVEKEKEPHLVEEVSVLPKEEQFVGQMGLTENKHSFQDTQFQNPTWCDYCKKKVWTKAASQCMFCAYVCHKKCQEKCLAETSVCGATDRRIDRTLKNLRLEGQETLLGLPPRVDAEASKSVNKTTGLTRHIINTSSRLLNLRQVSKTRLSEPGTDLVEPSPKHTPNTSDNEGSDTEVCGPNSPSKRGNSTGIKLVRKEGGLDDSVFIAVKEIGRDLYRGLPTEERIQKLEFMLDKLQNEIDQELEHNNSLVREEKETTDTRKKSLLSAALAKSGERLQALTLLMIHYRAGIEDIETLESLSLDQHSKKISKYTDDTEEDLDNEISQLIDSQPFSSISDDLFGPSESV |
|  |  | binds | PDZD8-GFP, expressed in MEFs (protein, UniProt Q8NEN9 1-1154) MGLLLMILASAVLGSFLTLLAQFFLLYRRQPEPPADEAARAGEGFRYIKPVPGLLLREYLYGGGRDEEPSGAAPEGGATPTAAPETPAPPTRETCYFLNATILFLFRELRDTALTRRWVTKKIKVEFEELLQTKTAGRLLEGLSLRDVFLGETVPFIKTIRLVRPVVPSATGEPDGPEGEALPAACPEELAFEAEVEYNGGFHLAIDVDLVFGKSAYLFVKLSRVVGRLRLVFTRVPFTHWFFSFVEDPLIDFEVRSQFEGRPMPQLTSIIVNQLKKIIKRKHTLPNYKIRFKPFFPYQTLQGFEEDEEHIHIQQWALTEGRLKVTLLECSRLLIFGSYDREANVHCTLELSSSVWEEKQRSSIKTVELIKGNLQSVGLTLRLVQSTDGYAGHVIIETVAPNSPAAIADLQRGDRLIAIGGVKITSTLQVLKLIKQAGDRVLVYYERPVGQSNQGAVLQDNFGQLEENFLSSSCQSGYEEEAAGLTVDTESRELDSEFEDLASDVRAQNEFKDEAQSLSHSPKRVPTTLSIKPLGAISPVLNRKLAVGSHPLPPKIQSKDGNKPPPLKTSEITDPAQVSKPTQGSAFKPPVPPRPQAKVPLPSADAPNQAEPDVLVEKPEKVVPPPLVDKSAEKQAKNVDAIDDAAAPKQFLAKQEVAKDVTSETSCPTKDSSDDRQTWESSEILYRNKLGKWTRTRASCLFDIEACHRYLNIALWCRDPFKLGGLICLGHVSLKLEDVALGCLATSNTEYLSKLRLEAPSPKAIVTRTALRNLSMQKGFNDKFCYGDITIHFKYLKEGESDHHVVTNVEKEKEPHLVEEVSVLPKEEQFVGQMGLTENKHSFQDTQFQNPTWCDYCKKKVWTKAASQCMFCAYVCHKKCQEKCLAETSVCGATDRRIDRTLKNLRLEGQETLLGLPPRVDAEASKSVNKTTGLTRHIINTSSRLLNLRQVSKTRLSEPGTDLVEPSPKHTPNTSDNEGSDTEVCGPNSPSKRGNSTGIKLVRKEGGLDDSVFIAVKEIGRDLYRGLPTEERIQKLEFMLDKLQNEIDQELEHNNSLVREEKETTDTRKKSLLSAALAKSGERLQALTLLMIHYRAGIEDIETLESLSLDQHSKKISKYTDDTEEDLDNEISQLIDSQPFSSISDDLFGPSESV |

Further lines, the binder ahead of its results:

| Binder | binding [1] | binding [2] | binding [3] |
| --- | --- | --- | --- |
| PDZD8 (endogenous, MEFs) (protein, UniProt B9EJ80 1-1147) MGLLLLILASAVLGSFLTLLAQFLLLYRRQPEPRADEAARAGDGFRYLKPVPGLPLREYLYGGGAEELAACSSEAGASSTPTPDSPAPPTLETCYFLNATILFLFRELRDTALARRWVTKKIKVEFEELLQTKTAGRLLEGLSLRDVFLGDTVPFIKTIRLVRPVVASGTGEPDDPDGDALPATCPEELAFEAEVEYNGGFHLAIDVDLVFGKSAYLFVKLSRVVGRLRFVLTRVPFTHWFFSFVEDPLIDFEVRSQFEGRPMPQLTSIIVNQLKKIIKRKHTLPSYKIRFKPFFPYQALQGFEEDEELIHIQQWALTEGRLKVTLLECSRLFIFGSYDRETNVHCTLELSSGVWEEKQRSSIKTVELIKGNLQSVGLTLRLVQSTDGYAGHVIIETVAPNSPAAMADLQRGDRLIAIGGVKITSTLQVLKLIKQAGDRVLVYYQRPAGQSSQDSLGQLEESFLSSSCQAAYEEDAAGLSADTENRDLDSEFEDLASDVRVQTELKEETQPLSHSPKRTPTTLSIKPLGAISPVLNRKLISGIHPPPQKLPSKEGNKPSTLKTSETTEAAQVSKPQGPTFKPPVPPRPQGRVPLPPTDTSAQADPEAPEKPDKVLLPPPPADKPAEKQVKSVDQGEDVAAGKQSSAKQEGVKDLPSESSAPTKDSSDDPQMWESSEVLYRNKVGKWSRTRASCVFDIEACHRYLNIALWCRDPFKLGGLICLGHVSLKLEEVALGCLATSNMEYLTKFRLEPPTPKAMVTRTALRNLSMQKGFNDKFCFGDITIHFKYLKEGEPDHHIVPNVEKEKELHLVEEVSTLPKEEHFVGQMSLSENKHSFQDTQFQNPTWCDYCKKKVWTKAASQCMFCAYVCHKKCQEKCLAETPLCGATERRIDRTLKNLRLEGQDPLLGLPPRVEIEANKSVNKTTGLTRHIINTSSRLLNLRQVSKTRLSEPGTDLVEPSPKHTPNTSDNEGSDTEVCGSNSPSKRGNSAGIKLMRKEGGLDDSVFIAVKEIGRDLYRGLPTEERIQKLEFMLDKLQNEIDQELEHNNSLVREEKETNDTRKKSVLSAALAKSGERLQALTLLMIHYRAGIEDIETLENLSLDQHSKKMNKYADDTEEDLDSEISQLIDSQPFSNISDDLFGPSESV | binds |  |  |
| HA-tagged PDZD8, stably expressed in MEFs (protein, UniProt Q8NEN9 1-1154) MGLLLMILASAVLGSFLTLLAQFFLLYRRQPEPPADEAARAGEGFRYIKPVPGLLLREYLYGGGRDEEPSGAAPEGGATPTAAPETPAPPTRETCYFLNATILFLFRELRDTALTRRWVTKKIKVEFEELLQTKTAGRLLEGLSLRDVFLGETVPFIKTIRLVRPVVPSATGEPDGPEGEALPAACPEELAFEAEVEYNGGFHLAIDVDLVFGKSAYLFVKLSRVVGRLRLVFTRVPFTHWFFSFVEDPLIDFEVRSQFEGRPMPQLTSIIVNQLKKIIKRKHTLPNYKIRFKPFFPYQTLQGFEEDEEHIHIQQWALTEGRLKVTLLECSRLLIFGSYDREANVHCTLELSSSVWEEKQRSSIKTVELIKGNLQSVGLTLRLVQSTDGYAGHVIIETVAPNSPAAIADLQRGDRLIAIGGVKITSTLQVLKLIKQAGDRVLVYYERPVGQSNQGAVLQDNFGQLEENFLSSSCQSGYEEEAAGLTVDTESRELDSEFEDLASDVRAQNEFKDEAQSLSHSPKRVPTTLSIKPLGAISPVLNRKLAVGSHPLPPKIQSKDGNKPPPLKTSEITDPAQVSKPTQGSAFKPPVPPRPQAKVPLPSADAPNQAEPDVLVEKPEKVVPPPLVDKSAEKQAKNVDAIDDAAAPKQFLAKQEVAKDVTSETSCPTKDSSDDRQTWESSEILYRNKLGKWTRTRASCLFDIEACHRYLNIALWCRDPFKLGGLICLGHVSLKLEDVALGCLATSNTEYLSKLRLEAPSPKAIVTRTALRNLSMQKGFNDKFCYGDITIHFKYLKEGESDHHVVTNVEKEKEPHLVEEVSVLPKEEQFVGQMGLTENKHSFQDTQFQNPTWCDYCKKKVWTKAASQCMFCAYVCHKKCQEKCLAETSVCGATDRRIDRTLKNLRLEGQETLLGLPPRVDAEASKSVNKTTGLTRHIINTSSRLLNLRQVSKTRLSEPGTDLVEPSPKHTPNTSDNEGSDTEVCGPNSPSKRGNSTGIKLVRKEGGLDDSVFIAVKEIGRDLYRGLPTEERIQKLEFMLDKLQNEIDQELEHNNSLVREEKETTDTRKKSLLSAALAKSGERLQALTLLMIHYRAGIEDIETLESLSLDQHSKKISKYTDDTEEDLDNEISQLIDSQPFSSISDDLFGPSESV | binds | binds |  |
| HA-tagged PDZD8-T527A, stably expressed in MEFs (protein, UniProt Q8NEN9 1-1154) MGLLLMILASAVLGSFLTLLAQFFLLYRRQPEPPADEAARAGEGFRYIKPVPGLLLREYLYGGGRDEEPSGAAPEGGATPTAAPETPAPPTRETCYFLNATILFLFRELRDTALTRRWVTKKIKVEFEELLQTKTAGRLLEGLSLRDVFLGETVPFIKTIRLVRPVVPSATGEPDGPEGEALPAACPEELAFEAEVEYNGGFHLAIDVDLVFGKSAYLFVKLSRVVGRLRLVFTRVPFTHWFFSFVEDPLIDFEVRSQFEGRPMPQLTSIIVNQLKKIIKRKHTLPNYKIRFKPFFPYQTLQGFEEDEEHIHIQQWALTEGRLKVTLLECSRLLIFGSYDREANVHCTLELSSSVWEEKQRSSIKTVELIKGNLQSVGLTLRLVQSTDGYAGHVIIETVAPNSPAAIADLQRGDRLIAIGGVKITSTLQVLKLIKQAGDRVLVYYERPVGQSNQGAVLQDNFGQLEENFLSSSCQSGYEEEAAGLTVDTESRELDSEFEDLASDVRAQNEFKDEAQSLSHSPKRVPATLSIKPLGAISPVLNRKLAVGSHPLPPKIQSKDGNKPPPLKTSEITDPAQVSKPTQGSAFKPPVPPRPQAKVPLPSADAPNQAEPDVLVEKPEKVVPPPLVDKSAEKQAKNVDAIDDAAAPKQFLAKQEVAKDVTSETSCPTKDSSDDRQTWESSEILYRNKLGKWTRTRASCLFDIEACHRYLNIALWCRDPFKLGGLICLGHVSLKLEDVALGCLATSNTEYLSKLRLEAPSPKAIVTRTALRNLSMQKGFNDKFCYGDITIHFKYLKEGESDHHVVTNVEKEKEPHLVEEVSVLPKEEQFVGQMGLTENKHSFQDTQFQNPTWCDYCKKKVWTKAASQCMFCAYVCHKKCQEKCLAETSVCGATDRRIDRTLKNLRLEGQETLLGLPPRVDAEASKSVNKTTGLTRHIINTSSRLLNLRQVSKTRLSEPGTDLVEPSPKHTPNTSDNEGSDTEVCGPNSPSKRGNSTGIKLVRKEGGLDDSVFIAVKEIGRDLYRGLPTEERIQKLEFMLDKLQNEIDQELEHNNSLVREEKETTDTRKKSLLSAALAKSGERLQALTLLMIHYRAGIEDIETLESLSLDQHSKKISKYTDDTEEDLDNEISQLIDSQPFSSISDDLFGPSESV | binds | binds |  |
